According to the supplement of paper PMC10663445:
Counter-ions that a name gives are not always drawn. Some of the results follow. Many values rest on one well or one pass, so single values are uncertain.

Each molecule was assayed on hsa-miR-132-3p (assay: miR-132-3p level in NGN2-iNs after compound treatment (TMM-normalised, ComBat batch-corrected) (batch-corrected normalised expression (arbitrary units)); higher = higher miR-132-3p expression). Conditions: 10 µM; 24 h; human iPSC-derived NGN2 neurons (BR43).

SMILES | miR-132-3p level in NGN2-iNs
O=C(NCc1ccccc1)c1csc(Nc2ccncn2)n1 [Thiazovivin] | 0.885
CNC[C@H](O)c1ccc(O)c(O)c1 [Epinephrine bitartrate] | 0.102
CNC[C@H](O)c1ccc(O)c(O)c1 [Epinephrine HCl] | 0.786
CC(S)C(=O)NCC(=O)O (configuration not stated) [Tiopronin] | 0.244
CCc1cc(Nc2nccc(-c3c(-c4ccc(OC)c(C(=O)Nc5c(F)cccc5F)c4)nc4ccccn34)n2)c(OC)cc1N1CCC(N2CCN(S(C)(=O)=O)CC2)CC1 | 0.338
Nc1ccn([C@H]2CC[C@@H](CO)O2)c(=O)n1 [Zalcitabine] | 0.171
C[C@@H](O)[C@H]1C(=O)N2C(C(=O)O)=C(S[C@@H]3CN[C@H](CNS(N)(=O)=O)C3)[C@H](C)[C@H]12 [Doripenem Hydrate] | -1.2
CC(C)(C#N)c1cc(Cn2cncn2)cc(C(C)(C)C#N)c1 [Anastrozole] | 0.34
COc1cc2nccc(Oc3ccc(NC(=O)Nc4cc(C)on4)c(Cl)c3)c2cc1OC [Tivozanib (AV-951)] | 0.0531
CNC(=O)c1cccc(-c2ccc3c(N4CCOC[C@@H]4C)nc(N4CCOC[C@@H]4C)nc3n2)c1 [Vistusertib (AZD2014)] | -0.32
CN(C)CCOC(C)(c1ccccc1)c1ccccn1 (configuration not stated) [Doxylamine Succinate] | 1.34
COc1cccc(-c2cc(=O)c3ccccc3o2)c1N | 0.608
CC(C)(C)[N+]([O-])=Cc1ccc(S(=O)(=O)O)cc1S(=O)(=O)O [Disufenton sodium] | -0.0101
CN1CCN(C(c2ccccc2)c2ccccc2)CC1 [Cyclizine 2HCl] | -0.539
CC(C)OC(=O)C1=CN(C(=O)c2ccc(F)c(F)c2)CC(C)(C)c2c1[nH]c1ccccc21 [Turofexorate Isopropyl (XL335)] | 1.31
Cc1ccc(F)c(NC(=O)Nc2ccc(-c3cccc4[nH]nc(N)c34)cc2)c1 [Linifanib (ABT-869)] | -0.134
C[C@]12CC[C@@H]3c4ccc(OC(=O)c5ccccc5)cc4CC[C@H]3[C@@H]1CC[C@@H]2O [Estradiol Benzoate] | -0.148
CC[C@@H](C)Nc1cc(C(=O)N[C@H]2C[C@H]3CC[C@@H](C2)N3c2ccc(C(=O)C3CC3)cn2)c(C)cc1C(N)=O | 2
Cc1ccc(NC(=O)c2cccc(C(C)(C)C#N)c2)cc1Nc1ccc2ncn(C)c(=O)c2c1 | 0.242
OCCN(CCO)c1nc(N2CCCCC2)c2nc(N(CCO)CCO)nc(N3CCCCC3)c2n1 [Dipyridamole] | 0.467
CNc1nc(Nc2cn(C(C)(C)C#N)nc2C)ncc1C(F)(F)F | -0.303
COCCCN1CCC(NC(=O)c2cc(Cl)c(N)c3c2OCC3)CC1 [Prucalopride] | -0.963
COCCCN1CCC(NC(=O)c2cc(Cl)c(N)c3c2OCC3)CC1 [Prucalopride Succinate] | 0.515
O=C(Nc1ccncc1)c1cc([N+](=O)[O-])ccc1Cl | -1.16
O=C(CCCN1CCN(c2ccccn2)CC1)c1ccc(F)cc1 [Azaperone] | 2.32
C[C@H](CCC(=O)O)[C@H]1CC[C@H]2[C@@H]3[C@@H](O)C[C@@H]4C[C@H](O)CC[C@]4(C)[C@H]3CC[C@]12C [Ursodiol] | 1.51

A few values from above:
miR-132-3p level in NGN2-iNs, CNc1nc(Nc2cn(C(C)(C)C#N)nc2C)ncc1C(F)(F)F is entered as -0.303
miR-132-3p level in NGN2-iNs, CC(C)OC(=O)C1=CN(C(=O)c2ccc(F)c(F)c2)CC(C)(C)c2c1[nH]c1ccccc21 [Turofexorate Isopropyl (XL335)] is entered as 1.31
miR-132-3p level in NGN2-iNs, O=C(NCc1ccccc1)c1csc(Nc2ccncn2)n1 [Thiazovivin] is entered as 0.885
miR-132-3p level in NGN2-iNs, CNC(=O)c1cccc(-c2ccc3c(N4CCOC[C@@H]4C)nc(N4CCOC[C@@H]4C)nc3n2)c1 [Vistusertib (AZD2014)] is entered as -0.32
miR-132-3p level in NGN2-iNs, C[C@H](CCC(=O)O)[C@H]1CC[C@H]2[C@@H]3[C@@H](O)C[C@@H]4C[C@H](O)CC[C@]4(C)[C@H]3CC[C@]12C [Ursodiol] is entered as 1.51

The list continues.

SMILES | miR-132-3p level in NGN2-iNs
Cc1ccc(=O)n(-c2ccccc2)c1 [Pirfenidone] | 0.903
COc1ccc(C2CC(=O)c3c(O)cc(OC4OC(COC5OC(C)C(O)C(O)C5O)C(O)C(O)C4O)cc3O2)cc1OC (configuration not stated) [Methyl-Hesperidin] | 1.15
CN(C)C(=O)[C@H](O)[C@H](Cc1ccccc1)NC(=O)c1cc2cc(Cl)ccc2[nH]1 | 0.0114
O=C(Oc1cc(S(=O)(=O)c2ccccc2)ccc1[N+](=O)[O-])c1ccc(Cl)cc1 | -0.345
N#CCNC(=O)c1ccc(-c2ccnc(Nc3ccc(N4CCOCC4)cc3)n2)cc1 [Momelotinib (CYT387)] | -3.44
OCc1c[nH]c2ccccc12 [Indole-3-carbinol] | -0.837
CS(=O)(=O)OCCCCOS(C)(=O)=O [Busulfan] | 1.76
Cc1ncc(-c2ccnc(Nc3ccc(S(C)(=O)=O)cc3)n2)n1C(C)C | 1.72
C[C@@H](O[C@H]1OCCN(Cc2nn(P(=O)(O)O)c(=O)[nH]2)[C@H]1c1ccc(F)cc1)c1cc(C(F)(F)F)cc(C(F)(F)F)c1 [Fosaprepitant dimeglumine salt] | -0.913
CCC(C)(Oc1ccc(C2(c3ccc(OC(C)(CC)C(=O)O)cc3)CCCCC2)cc1)C(=O)O (configuration not stated) [Clinofibrate] | -0.589
CN1CCc2c(c3ccccc3n2Cc2ccc(C(=O)NO)cc2)C1 [Tubastatin A HCl] | -0.72
CN1CCc2c(c3ccccc3n2Cc2ccc(C(=O)NO)cc2)C1 [Tubastatin A] | -1.12
CN(C)C(=O)c1ccc(S(=O)(=O)c2ccc(NC(=O)C(C)(O)C(F)(F)F)c(Cl)c2)cc1 (configuration not stated) | -0.744
Cc1c(CN2CCN(C(=O)[C@H](C)O)CC2)sc2c(N3CCOCC3)nc(-c3cnc(N)nc3)nc12 [Apitolisib (GDC-0980)] | 1.23
Cc1cnc(-c2cc(N3CCN(C(=O)CCS(C)(=O)=O)CC3)ncc2Cl)c(C)c1 | -0.341
c1ccc2c(CC3=NCCN3)cccc2c1 [Naphazoline HCl] | 0.291
CC(C=CC(=O)NO)=CC(C)C(=O)c1ccc(N(C)C)cc1 (configuration not stated) [Trichostatin A (TSA)] | -0.591
CCN(CC)CC(=O)Nc1c(C)cccc1C [Lidocaine] | -1.87
CC(=O)NS(=O)(=O)c1ccc(N)cc1 [Sulfacetamide Sodium] | -0.726
C=C1CC[C@@H]2[C@](C)(CO)[C@H](O)CC[C@@]2(C)[C@@H]1C/C=C1/C(=O)OC[C@H]1O [Andrographolide] | 1.6
OCc1ccccc1O[C@@H]1O[C@H](CO)[C@@H](O)[C@H](O)[C@H]1O [Salicin] | 1.18
CN1C(CCl)Nc2cc(Cl)c(S(N)(=O)=O)cc2S1(=O)=O (configuration not stated) [Methyclothiazide] | -0.29
COc1cccc2c1C(=O)c1c(O)c3c(c(O)c1C2=O)C[C@@](O)(C(C)=O)C[C@@H]3O[C@H]1C[C@H](N)[C@H](O)[C@H](C)O1 [Daunorubicin HCl] | -0.0207
CNC(=O)c1cc(Oc2ccc(NC(=O)Nc3ccc(Cl)c(C(F)(F)F)c3)cc2)ccn1 [Sorafenib Tosylate] | 0.0724
CNC(=O)c1cc(Oc2ccc(NC(=O)Nc3ccc(Cl)c(C(F)(F)F)c3)cc2)ccn1 [Sorafenib] | -1.05
Cc1ccc(S(=O)(=O)Cc2nc(-c3ccc(C(=O)NCc4cccnc4)cc3)oc2C)cc1 | 2.04

SMILES | miR-132-3p level in NGN2-iNs
OCCn1cc(-c2cnc3nnn(Cc4ccc5ncccc5c4)c3n2)cn1 | 0.324
Cc1ncc([N+](=O)[O-])n1CC(C)O (configuration not stated) [Secnidazole] | 0.475
COc1ccc2cc([C@H](C)C(=O)O)ccc2c1 [Naproxen Sodium] | -0.502
C[C@]12CCC(=O)C=C1[C@@H]1C[C@@H]1[C@H]1[C@@H]3[C@@H]4C[C@@H]4[C@@]4(CCC(=O)O4)[C@@]3(C)CC[C@@H]12 [Drospirenone] | 0.122
O=C(O)c1cc(=O)[nH]c(=O)[nH]1 [Orotic acid (6-Carboxyuracil)] | 0.106
Cc1ccccc1C(C(=O)NC1CCCCC1)N(C(=O)Cn1ccnc1C)c1cccc(F)c1 (configuration not stated) | -0.289
CC1(C)S[C@@H]2[C@H](NC(=O)[C@H](N)c3ccccc3)C(=O)N2[C@H]1C(=O)O [Ampicillin sodium] | 0.651
C=C[C@H]1CN2CC[C@H]1C[C@H]2[C@H](O)c1ccnc2ccc(OC)cc12 [Quinine HCl Dihydrate] | 1.78
Oc1ccc(-c2nc(-c3ccc(F)cc3)c(-c3ccncc3)[nH]2)cc1 | -0.216
NC(=O)c1cnccn1 [Pyrazinamide] | -0.294
C#Cc1cccc(Nc2ncnc3cc(OCCOC)c(OCCO)cc23)c1 | 0.0422
Cc1cnc(-c2ccccc2C(C)C)nc1NCc1ccc(-n2ccnn2)cc1 | -0.607
Nc1ccc(-c2ccc3ncc4ccc(=O)n(-c5cccc(C(F)(F)F)c5)c4c3c2)cn1 [Torin 2] | -1.25
CSc1nc2cc(Cl)c(Oc3cccc(Cl)c3Cl)cc2[nH]1 [Triclabendazole] | 0.884
CN(C(Cc1ccc(OS(=O)(=O)c2cccc3cnccc23)cc1)C(=O)N1CCN(c2ccccc2)CC1)S(=O)(=O)c1cccc2cnccc12 (configuration not stated) | 0.115
CC(=O)O[C@H]1C(=O)[C@@]2(C)[C@H]([C@H](OC(=O)c3ccccc3)[C@]3(O)C[C@H](OC(=O)[C@H](O)[C@@H](NC(=O)c4ccccc4)c4ccccc4)C(C)=C1C3(C)C)[C@]1(OC(C)=O)CO[C@@H]1C[C@@H]2O [Paclitaxel] | 0.412
NC(=O)c1cccc(-c2cccc(OC(=O)NC3CCCCC3)c2)c1 | 1.9
CCCNC(=O)Nc1ccc(Oc2ncnc3cc(OC)c(OC)cc23)cc1Cl | 0.706
Cc1cn(-c2cc(NC(=O)c3ccc(C)c(Nc4nccc(-c5cccnc5)n4)c3)cc(C(F)(F)F)c2)cn1 [Nilotinib (AMN-107)] | 0.684
NC(=O)c1ccc(-c2nc(-c3ccccn3)c(-c3ccc4c(c3)OCO4)[nH]2)cc1 | 0.166
CN1C(=O)C(Cc2c[nH]c3ccccc23)NC1=S (configuration not stated) [Necrostatin-1] | -0.627
O=S(=O)(O)Oc1ccc(C(c2ccc(OS(=O)(=O)O)cc2)c2ccccn2)cc1 [Sodium Picosulfate] | -0.462
CCn1c(-c2nonc2N)nc2c(C#CC(C)(C)O)ncc(OC[C@H]3CCCNC3)c21 | 0.45
CC(C)OC(=O)C(C)(C)Oc1ccc(C(=O)c2ccc(Cl)cc2)cc1 [Fenofibrate] | -1.41
Cc1ccc(NC(=O)C2(c3ccc4c(c3)OC(F)(F)O4)CC2)nc1-c1cccc(C(=O)O)c1 [VX-809 (Lumacaftor)] | 0.148
